Sequences of proteins named here, by UniProt entry; tags and fusion partners are left off.
UniProt Q14764: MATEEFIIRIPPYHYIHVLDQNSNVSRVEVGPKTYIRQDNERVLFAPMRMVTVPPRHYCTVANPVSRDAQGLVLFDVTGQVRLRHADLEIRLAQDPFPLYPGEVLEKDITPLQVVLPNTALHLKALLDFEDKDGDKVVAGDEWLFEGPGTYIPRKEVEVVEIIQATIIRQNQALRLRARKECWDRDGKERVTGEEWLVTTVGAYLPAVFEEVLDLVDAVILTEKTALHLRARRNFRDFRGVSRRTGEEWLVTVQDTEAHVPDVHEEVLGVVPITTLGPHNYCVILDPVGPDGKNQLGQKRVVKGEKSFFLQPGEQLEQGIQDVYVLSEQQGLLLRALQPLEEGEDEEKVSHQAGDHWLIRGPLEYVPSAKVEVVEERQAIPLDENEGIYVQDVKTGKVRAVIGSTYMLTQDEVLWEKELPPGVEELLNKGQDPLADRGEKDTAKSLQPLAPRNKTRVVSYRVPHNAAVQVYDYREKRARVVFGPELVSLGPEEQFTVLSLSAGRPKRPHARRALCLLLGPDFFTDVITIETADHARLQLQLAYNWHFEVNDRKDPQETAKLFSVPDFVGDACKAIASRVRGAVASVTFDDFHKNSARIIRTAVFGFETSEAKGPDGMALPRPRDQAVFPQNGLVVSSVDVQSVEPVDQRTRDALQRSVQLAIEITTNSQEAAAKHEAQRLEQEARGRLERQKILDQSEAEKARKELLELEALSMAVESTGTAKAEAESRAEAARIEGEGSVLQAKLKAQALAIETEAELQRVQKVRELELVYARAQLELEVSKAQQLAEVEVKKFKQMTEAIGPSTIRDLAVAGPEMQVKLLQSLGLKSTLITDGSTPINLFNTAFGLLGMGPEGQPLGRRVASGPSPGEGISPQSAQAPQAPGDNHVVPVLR

According to publication doi:10.1101/2024.06.27.601040 (bioRxiv, 2024):

B1: AKR1C3 (enzyme, UniProt P42330 1-323)
chain: MDSKHQCVKLNDGHFMPVLGFGTYAPPEVPRSKALEVTKLAIEAGFRHIDSAHLYNNEEQVGLAIRSKIADGSVKREDIFYTSKLWSTFHRPELVRPALENSLKKAQLDYVDLYLIHSPMSLKPGEELSPTDENGKVIFDIVDLCTTWEAMEKCKDAGLAKSIGVSNFNRRQLEMILNKPGLKYKPVCNQVECHPYFNRSKLLDFCKSKDIVLVAYSALGSQRDKRWVDPNSPVLLEDPVLCALAKKHKRTPALIALRYQLQRGVVVLAKSYNEQRIRQNVQVFEFQLTAEDMKAIDGLDRNLHYFNSDSFASHPNYPYSDEY
B2: HNRNPDL (protein, UniProt O14979 1-420)
chain: MEVPPRLSHVPPPLFPSAPATLASRSLSHWRPRPPRQLAPLLPSLAPSSARQGARRAQRHVTAQQPSRLAGGAAIKGGRRRRPDLFRRHFKSSSIQRSAAAAAATRTARQHPPADSSVTMEDMNEYSNIEEFAEGSKINASKNQQDDGKMFIGGLSWDTSKKDLTEYLSRFGEVVDCTIKTDPVTGRSRGFGFVLFKDAASVDKVLELKEHKLDGKLIDPKRAKALKGKEPPKKVFVGGLSPDTSEEQIKEYFGAFGEIENIELPMDTKTNERRGFCFITYTDEEPVKKLLESRYHQIGSGKCEIKVAQPKEVYRQQQQQQKGGRGAAAGGRGGTRGRGRGQGQNWNQGFNNYYDQGYGNYNSAYGGDQNYSGYGGYDYTGYNYGNYGYGQGYADYSGQQSTYGKASRGGGNHQNNYQPY
B3: DARS2 (enzyme, UniProt Q6PI48 48-645)
chain: VVRTNTCGELRSSHLGQEVTLCGWIQYRRQNTFLVLRDFDGLVQVIIPQDESAASVKKILCEAPVESVVQVSGTVISRPAGQENPKMPTGEIEIKVKTAELLNACKKLPFEIKNFVKKTEALRLQYRYLDLRSFQMQYNLRLRSQMVMKMREYLCNLHGFVDIETPTLFKRTPGGAKEFLVPSREPGKFYSLPQSPQQFKQLLMVGGLDRYFQVARCYRDEGSRPDRQPEFTQIDIEMSFVDQTGIQSLIEGLLQYSWPNDKDPVVVPFPTMTFAEVLATYGTDKPDTRFGMKIIDISDVFRNTEIGFLQDALSKPHGTVKAICIPEGAKYLKRKDIESIRNFAADHFNQEILPVFLNANRNWNSPVANFIMESQRLELIRLMETQEEDVVLLTAGEHNKACSLLGKLRLECADLLETRGVVLRDPTLFSFLWVVDFPLFLPKEENPRELESAHHPFTAPHPSDIHLLYTEPKKARSQHYDLVLNGNEIGGGSIRIHNAELQRYILATLLKEDVKMLSHLLQALDYGAPPHGGIALGLDRLICLVTGSPSIRDVIAFPKSFRGHDLMSNTPDSVPPEELKPYHIRVSKPTDSKAERAH
B4: TRO (protein, UniProt Q12816 1-1431)
chain: MDRRNDYGYRVPLFQGPLPPPGSLGLPFPPDIQTETTEEDSVLLMHTLLAATKDSLAMDPPVVNRPKKSKTKKAPIKTITKAAPAAPPVPAANEIATNKPKITWQALNLPVITQISQALPTTEVTNTQASSVTAQPKKANKMKRVTAKAAQGSQSPTGHEGGTIQLKSPLQVLKLPVISQNIHAPIANESASSQALITSIKPKKASKAKKAANKAIASATEVSLAATATHTATTQGQITNETASIHTTAASIRTKKASKARKTIAKVINTDTEHIEALNVTDAATRQIEASVVAIRPKKSKGKKAASRGPNSVSEISEAPLATQIVTNQALAATLRVKRGSRARKAATKARATESQTPNADQGAQAKIASAQTNVSALETQVAAAVQALADDYLAQLSLEPTTRTRGKRNRKSKHLNGDERSGSNYRRIPWGRRPAPPRDVAILQERANKLVKYLLVKDQTKIPIKRSDMLRDVIQEYDEYFPEIIERASYTLEKMFRVNLKEIDKQSSLYILISTQESSAGILGTTKDTPKLGLLMVILSVIFMNGNKASEAVIWEVLRKLGLRPGVRHSLFGEVRKLITDEFVKQKYLEYKRVPNSRPPEYEFFWGLRSYHETSKMKVLKFACRVQKKDPKDWAVQYREAVEMEVQAAAVAVAEAEARAEARAQMGIGEEAVAGPWNWDDMDIDCLTREELGDDAQAWSRFSFEIEARAQENADASTNVNFSRGASTRAGFSDGASISFNGAPSSSGGFSGGPGITFGVAPSTSASFSNTASISFGGTLSTSSSFSSAASISFGCAHSTSTSFSSEASISFGGMPCTSASFSGGVSSSFSGPLSTSATFSGGASSGFGGTLSTTAGFSGVLSTSTSFGSAPTTSTVFSSALSTSTGFGGILSTSVCFGGSPSSSGSFGGTLSTSICFGGSPCTSTGFGGTLSTSVSFGGSSSTSANFGGTLSTSICFDGSPSTGAGFGGALNTSASFGSVLNTSTGFGGAMSTSADFGGTLSTSVCFGGSPGTSVSFGSALNTNAGYGGAVSTNTDFGGTLSTSVCFGGSPSTSAGFGGALNTNASFGCAVSTSASFSGAVSTSACFSGAPITNPGFGGAFSTSAGFGGALSTAADFGGTPSNSIGFGAAPSTSVSFGGAHGTSLCFGGAPSTSLCFGSASNTNLCFGGPPSTSACFSGATSPSFCDGPSTSTGFSFGNGLSTNAGFGGGLNTSAGFGGGLGTSAGFSGGLSTSSGFDGGLGTSAGFGGGPGTSTGFGGGLGTSAGFSGGLGTSAGFGGGLVTSDGFGGGLGTNASFGSTLGTSAGFSGGLSTSDGFGSRPNASFDRGLSTIIGFGSGSNTSTGFTGEPSTSTGFSSGPSSIVGFSGGPSTGVGFCSGPSTSGFSGGPSTGAGFGGGPNTGAGFGGGPSTSAGFGSGAASLGACGFSYG
B5: WDR11 (protein, UniProt Q9BZH6 1-1224)
chain: MLPYTVNFKVSARTLTGALNAHNKAAVDWGWQGLIAYGCHSLVVVIDSITAQTLQVLEKHKADVVKVKWARENYHHNIGSPYCLRLASADVNGKIIVWDVAAGVAQCEIQEHAKPIQDVQWLWNQDASRDLLLAIHPPNYIVLWNADTGTKLWKKSYADNILSFSFDPFDPSHLTLLTSEGIVFISDFSPSKPPSGPGKKVYISSPHSSPAHNKLATATGAKKALNKVKILITQEKPSAEFITLNDCLQLAYLPSKRNHMLLLYPREILILDLEVNQTVGVIAIERTGVPFLQVIPCFQRDGLFCLHENGCITLRVRRSYNNIFTTSNEEPDPDPVQELTYDLRSQCDAIRVTKTVRPFSMVCCPVNENAAALVVSDGRVMIWELKSAVCNRNSRNSSSGVSPLYSPVSFCGIPVGVLQNKLPDLSLDNMIGQSAIAGEEHPRGSILREVHLKFLLTGLLSGLPAPQFAIRMCPPLTTKNIKMYQPLLAVGTSNGSVLVYHLTSGLLHKELSIHSCEVKGIEWTSLTSFLSFATSTPNNMGLVRNELQLVDLPTGRSIAFRGERGNDESAIEMIKVSHLKQYLAVVFRDKPLELWDVRTCTLLREMSKNFPTITALEWSPSHNLKSLRKKQLATREAMARQTVVSDTELSIVESSVISLLQEAESKSELSQNISAREHFVFTDIDGQVYHLTVEGNSVKDSARIPPDGSMGSITCIAWKGDTLVLGDMDGNLNFWDLKGRVSRGIPTHRSWVRKIRFAPGKGNQKLIAMYNDGAEVWDTKEVQMVSSLRSGRNVTFRILDVDWCTSDKVILASDDGCIRVLEMSMKSACFRMDEQELTEPVWCPYLLVPRASLALKAFLLHQPWNGQYSLDISHVDYPENEEIKNLLQEQLNSLSNDIKKLLLDPEFTLLQRCLLVSRLYGDESELHFWTVAAHYLHSLSQEKSASTTAPKEAAPRDKLSNPLDICYDVLCENAYFQKFQLERVNLQEVKRSTYDHTRKCTDQLLLLGQTDRAVQLLLETSADNQHYYCDSLKACLVTTVTSSGPSQSTIKLVATNMIANGKLAEGVQLLCLIDKAADACRYLQTYGEWNRAAWLAKVRLNPEECADVLRRWVDHLCSPQVNQKSKALLVLLSLGCFFSVAETLHSMRYFDRAALFVEACLKYGAFEVTEDTEKLITAIYADYARSLKNLGFKQGAVLFASKAGAAGKDLLNELESPKEEPIEE
B6: TCAF1 (protein, UniProt Q9Y4C2 1-921)
chain: MATPSAAFEALMNGVTSWDVPEDAVPCELLLIGEASFPVMVNDMGQVLIAASSYGRGRLVVVSHEDYLVEAQLTPFLLNAVGWLCSSPGAPIGVHPSLAPLAKILEGSGVDAKVEPEVKDSLGVYCIDAYNETMTEKLVKFMKCGGGLLIGGQAWDWANQGEDERVLFTFPGNLVTSVAGIYFTDNKGDTSFFKVSKKMPKIPVLVSCEDDLSDDREELLHGISELDISNSDCFPSQLLVHGALAFPLGLDSYHGCVIAAARYGRGRVVVTGHKVLFTVGKLGPFLLNAVRWLDGGRRGKVVVQTELRTLSGLLAVGGIDTSIEPNLTSDASVYCFEPVSEVGVKELQEFVAEGGGLFVGAQAWWWAFKNPGVSPLARFPGNLLLNPFGISITSQSLNPGPFRTPKAGIRTYHFRSTLAEFQVIMGRKRGNVEKGWLAKLGPDGAAFLQIPAEEIPAYMSVHRLLRKLLSRYRLPVATRENPVINDCCRGAMLSLATGLAHSGSDLSLLVPEIEDMYSSPYLRPSESPITVEVNCTNPGTRYCWMSTGLYIPGRQIIEVSLPEAAASADLKIQIGCHTDDLTRASKLFRGPLVINRCCLDKPTKSITCLWGGLLYIIVPQNSKLGSVPVTVKGAVHAPYYKLGETTLEEWKRRIQENPGPWGELATDNIILTVPTANLRTLENPEPLLRLWDEVMQAVARLGAEPFPLRLPQRIVADVQISVGWMHAGYPIMCHLESVQELINEKLIRTKGLWGPVHELGRNQQRQEWEFPPHTTEATCNLWCVYVHETVLGIPRSRANIALWPPVREKRVRIYLSKGPNVKNWNAWTALETYLQLQEAFGWEPFIRLFTEYRNQTNLPTENVDKMNLWVKMFSHQVQKNLAPFFEAWAWPIQKEVATSLAYLPEWKENIMKLYLLTQMPH
B7: DAZAP1 (protein, UniProt Q96EP5 1-407)
chain: MNNSGADEIGKLFVGGLDWSTTQETLRSYFSQYGEVVDCVIMKDKTTNQSRGFGFVKFKDPNCVGTVLASRPHTLDGRNIDPKPCTPRGMQPERTRPKEGWQKGPRSDNSKSNKIFVGGIPHNCGETELREYFKKFGVVTEVVMIYDAEKQRPRGFGFITFEDEQSVDQAVNMHFHDIMGKKVEVKRAEPRDSKSQAPGQPGASQWGSRVVPNAANGWAGQPPPTWQQGYGPQGMWVPAGQAIGGYGPPPAGRGAPPPPPPFTSYIVSTPPGGFPPPQGFPQGYGAPPQFSFGYGPPPPPPDQFAPPGVPPPPATPGAAPLAFPPPPSQAAPDMSKPPTAQPDFPYGQYAGYGQDLSGFGQGFSDPSQQPPSYGGPSVPGSGGPPAGGSGFGRGQNHNVQGFHPYRR
B8: ALDH1A1 (enzyme, UniProt P00352 1-501)
chain: MSSSGTPDLPVLLTDLKIQYTKIFINNEWHDSVSGKKFPVFNPATEEELCQVEEGDKEDVDKAVKAARQAFQIGSPWRTMDASERGRLLYKLADLIERDRLLLATMESMNGGKLYSNAYLNDLAGCIKTLRYCAGWADKIQGRTIPIDGNFFTYTRHEPIGVCGQIIPWNFPLVMLIWKIGPALSCGNTVVVKPAEQTPLTALHVASLIKEAGFPPGVVNIVPGYGPTAGAAISSHMDIDKVAFTGSTEVGKLIKEAAGKSNLKRVTLELGGKSPCIVLADADLDNAVEFAHHGVFYHQGQCCIAASRIFVEESIYDEFVRRSVERAKKYILGNPLTPGVTQGPQIDKEQYDKILDLIESGKKEGAKLECGGGPWGNKGYFVQPTVFSNVTDEMRIAKEEIFGPVQQIMKFKSLDDVIKRANNTFYGLSAGVFTKDIDKAITISSALQAGTVWVNCYGVVSAQCPFGGFKMSGNGRELGEYGFHEYTEVKTVTVKISQKNS

Biological target: endogenous MVP (native vault) of A549 cells (human (endogenous in A549)) (UniProt Q14764)
Experiment: affinity purification with mass spectrometry

Binder | binding
B1 | binds
B2 | binds
B3 | binds
B4 | binds
B5 | binds
B6 | binds
B7 | binds
B8 | binds

Results are given in words; binding and its absence hold for the method and conditions named. Binding seen in cells or lysates may run through a third protein. Here binding means that the protein was enriched with, or labelled near, the bait; the list need not be complete.
